Laboratory results reported in patent US11717661B2, “Methods and systems for ultrasound assisted delivery of a medicant to tissue” (Guided Therapy Systems, LLC, priority 2015, dated 2023).

Test system: human skin
Settings: human forearm; 10 MHz, 25 ms, 0.5 J; areas without lidocaine were irritated, red, and welt-like

Question: `CCN(CC)CC(=O)Nc1c(C)cccc1C` [lidocaine] was tested. Which “appearance of treatment areas after the application of the ultrasound energy” value did it give?
Answer: smooth and contained barely visible remnants
